Screening data

Data taken from PubChem BioAssay AID1159506, deposited by NCATS (2015).

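Genome-wide siRNA knockdown in TC32 Ewing sarcoma cells, comparing luciferase light from an NR0B1-promoter reporter with a CMV-promoter reporter 48 hours after transfection. Each siRNA was applied at 20 nM. A z-score of the log NR0B1-over-CMV signal, less the median of siRNAs with the same seed; more negative means a stronger specific loss of the NR0B1 reporter.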

The strongest results of the screen are mostly left out here. Sequences are the guide (antisense) strand, without overhang.

siRNA,target gene,seed-corrected z-score
UAAACUUAUCGCAAAUGUC,GRTP1,0.5131
UUCCAAAUUCUCGAGCUGG,MXI1,0.9887
AGAAGUUAUAUCCAUAUAG,TBX18,1.124
ACAUUCUACACCUUUCUGC,ZIM3,1.229
UUUCGGCAGACAUUCAAGC,CAMTA1,0.07442
UCAUCGUUGUGCGAUUUUG,GH2,-0.06434
UUCUGUUAAAGCGAAGAUC,PXDN,-0.2963
AGCAUUGAAACCAUAAGCC,SRI,-0.07273
UCCAUCUCCGAUUCAGUCC,BCL2L1,-0.2999
UGUUUGUCUGCAUUUAUUU,HIST2H2AC,0.1986
UUCUUCCAAAGCAUGUCCC,KHDRBS3,-0.04374
UUUCGGAAAACAACAGACC,ATP6AP2,0.6497
UUAGAAUUUCCUGCCGUUG,KLRA1P,0.1223
ACAGUUUCUCUUGCAAAGC,CFAP73,-0.4315
AAAUCUGGUAGUAAAAUGG,C17orf51,-0.8487
AUUGUUAGUAGGUAGUCUG,SOCS2,1.242
UACCAGACAAUGUUUCGCU,GAL3ST4,-0.1776
AAAACGAACAGCAUUGACC,ATG16L2,1.079
UAACCGAAGGCAAUUGUGC,HIST1H2BK,-0.05283
UCUGGUUUGCUAUCUGUCC,TULP4,-0.7314
AGAGCUAUAACAACAGCCU,ZP4,0.5424
UCAUUGACAAUUCCGCUGG,KCNIP2,0.6035
UUUAGAGGCAGAGUAAUUC,TAF7,0.03273
UAUUCUGAGACCCUCGUAC,BICC1,0.4037
AAUAUCUCGAGAAUCAUAC,SCML2,-0.6965
UUGUAUCCCUGCACGAUCU,CACTIN,-0.02521
UUCAUAACAAACAAUUCUG,MTIF2,0.398
UUUGUGAUUGUCCUCCUUC,LOC643623,0.003507
UUGCCUGAAACUCCAAGUC,XPC,-1.59
AUCAUUCCCACGUAUUUGU,YIF1A,0.758
UUCGAUGACACGCUGAAAG,SCGB1A1,0.1012
UACGGUAAACCCAAGAUAG,CLK1,-0.01088
UGUACUUGUAAAGUCGGCG,C17orf64,-0.7739
AAUACAACCAAUUUGGAGC,PRKAG1,1.036
UUGGUAGUAGCUGUAGUCG,RBM10,-0.4562
UUUGGUGGAACGCAGUUCC,SOSTDC1,-1.287
UACGCGCUCUGGGAAGAUG,SPATC1,-0.06294
UCUGUCUGAUGUUUGAUUU,FAM184B,-0.175
UACGAAGAUAGAGCAACGG,SETBP1,-0.005291
ACCGUUGUACACGAACUCC,TOB2,-0.9714
AAACGAAAAACAUCGCUUG,USP13,0.6601
UGCUAUGACGCGAUGAUGC,SMPDL3B,1.238
UACUCUUUCGUGGCCAGGC,SLC7A14,-0.2251
UCCUCUUGCAAAGAUGUGG,CCDC144NL,-0.3805
UUCGGGCAGAUGGAGCUUC,C9orf66,-0.2346
AAAUCCACCAAGAAAUACC,MRPS6,-0.002463
UGUGGUUGUAGCGGUCUCG,GPR4,-1.24
UAGGGUCUCUUCGUAGAGC,SERPINB5,0.49
UUGGUCGCAAUCAAGUAGC,ADRBK2,-0.5819
UACGUAGAGGAACAGGCCG,SLC39A4,0.4932
UGAUCUAUCACAGCGAGAC,ELN,0.132
AUGGUGUAAUGAGACAUCC,TGFBR3,-0.9532
UCUGUUAAGCUGUUGUUGG,PNRC2,-0.09432
UUCCUGGUAAGUGAGCUCC,MAPK11,-0.08024
UCCCUCAACAGUAAUGAUG,CSRP2BP,0.8342
AAAAUCACAAUCUACAUCG,JPH1,-0.3079
UGACUAAAGCGGAUACCGG,LINC00242,-0.125
UAGUGGUACAUCUCCGCGC,NPDC1,0.1356
ACUGUUACACUUAUCCUUG,SPRTN,-0.6447
UGCCGUCUCAGAAUUUGGG,RFX4,-0.08387
UCUGUCGCCUCAGUGAAUG,ABCA9,-0.7975
AGUAAAUUCAGGAUUAUUG,LY86,0.8456
UUAACAAAAGUCUGGAUGG,PHF23,0.4719

Once more, the final 4:

| siRNA | target gene | seed-corrected z-score |
|---|---|---|
| `UGCCGUCUCAGAAUUUGGG` | RFX4 | -0.08387 |
| `UCUGUCGCCUCAGUGAAUG` | ABCA9 | -0.7975 |
| `AGUAAAUUCAGGAUUAUUG` | LY86 | 0.8456 |
| `UUAACAAAAGUCUGGAUGG` | PHF23 | 0.4719 |